In patent publication US7083940B2, “Pregnancy-associated plasma protein-A2 (PAPP-A2)” (Como Biotech ApS, priority 2000, dated 2006):
Entries after “also recorded” stand apart in the source; their conditions may differ.

System: IGFBP-5
Assay: Cleavage site determination in IGFBP-5 (Edman degradation of digest with purified PAPP-A2)
Format: biochemical, human
Details: purified rIGFBP-5 digested with purified PAPP-A2; sequence analysis
Excerpt: For cleavage site determination, purified rIGFBP-5 (FIG. 6, lane 7) was digested with purified PAPP-A2 and analyzed by SDS-PAGE (FIG. 6, lane 8). […] The two bands both represent intact C-terminal cleavage fragments, because they also contain the C-terminal c-myc tag (FIG. 6, lane 9); they are likely to be differently glycosylated, in accordance with the heterogeneity of purified rIGFBP-5 (FIG. 6, lane 7). Both bands contained a second sequence at lower level (45%), L(1)GXFVH (SEQ ID NO:24), corresponding to the N-terminal sequence of IGFBP-5. The absence of Ser, expected in the third cycle, was taken as evidence for carbohydrate substitution of Ser-3. O-linked glycan on the N-terminal cleavage fragment is likely to cause it to smear around the two distinct, C-terminal fragments.

Question: How did the “Cleavage site in IGFBP-5” value turn out when “PAPP-A2: recombinant pregnancy-associated plasma protein-A2, SEQ ID NO:2, metzincin metalloproteinase expressed in 293T cells” was run?
Answer: between Ser-142 and Lys-143; also recorded: between Ser-143 and Lys-144
